Reference: publication PMC7305319, “Talin dissociates from RIAM and associates to vinculin sequentially in response to the actomyosin force” (Nature Communications, 2020)
No constants are given. Whether binding was seen depends on the method and setting.

Protein sequences, listed by entry. Tags and fused reporters are not part of them. Residues count along the entry.
UniProt Q9Y490, residues 196-405: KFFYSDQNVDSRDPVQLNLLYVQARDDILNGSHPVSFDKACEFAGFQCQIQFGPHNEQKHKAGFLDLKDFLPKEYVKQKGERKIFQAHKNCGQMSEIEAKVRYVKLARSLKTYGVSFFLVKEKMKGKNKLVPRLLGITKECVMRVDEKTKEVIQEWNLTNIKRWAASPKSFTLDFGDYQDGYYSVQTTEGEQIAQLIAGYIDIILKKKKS

Molecular target: talin F2–F3 (talin 196–405) (human) (UniProt Q9Y490)
Experiment: fluorescence microscopy of protein-coated micropatterns; talin construct (1 µM during coating) on 5 µm disk micropatterns, 0–1 µM mCherry-RIAM 1-306 in solution, no actomyosin; Kd estimated as the RIAM concentration at half saturation; both purified

binding: no binding
B1: mCherry-RIAM 1-306 (domain or fragment, mouse, UniProt Q8R5A3 1-306, looked up)
chain: MGESNEDIDQMFSTLLGEMDLLTQSLGVDTLPPPDPNPPREEFNYTVGFKDLNESLNALEDQDLDALMADLVADISEAEQRTIQAQKESSQNQDRFALLRASDGQGTASGGYGASAAAIDVSHHEEALPPPPVEPMLDLLPPPPPPPPPELLSKEEEEAKAKADKIKLALEKLKEAKVKKLVVKVHMDDSSTKSLMVDERQLARDVLDNLFEKTHCDCNVDWCLYEIYPELQIERVFEDHENVVEVLSDWTRDTENKVLFLEKEERYAVFKNPQNFYLDNKGKKENKETNEKMNAKNKEYLLEESF
notes: Cloned in a homemade pGEX-6P2-mCherry plasmid; source: E. coli BL21 DE3, purified (glutathione-Sepharose, PreScission cleavage, Ni-NTA); not shown: GST, N-terminal, cleaved
